Test results taken from US6335367B1 (priority 1999, dated 2002).
Some entries share one result that the patent states for a list of compounds.

Key:
Type in all cases: in vivo
Phytophthora infestans = settings: 300 grams/hectare; protective spray; scored after five days
[1] = system: Colletotrichum lagenarium; settings: 300 grams/hectare; protective spray
Sphaerotheca fulginea = assay: Cucumber Powdery Mildew (CPM) protective test on cucumber plants; settings: 300 grams per hectare; protective spray; scored seven days after inoculation
Septoria nodorum = assay: Wheat Leaf Blotch (SNW) protective test on wheat plants; settings: 300 grams per hectare; protective spray, inoculated one day after treatment
Botrytis cinerea = assay: Botrytis (BOT) protective test on sweet bell pepper plants; settings: 300 grams/hectare, protective spray, 4 or 5 days
[2] = system: Erysiphe graminis (f. sp. tritici); assay: Wheat Powdery Mildew (WPM) protective test on wheat seedlings; settings: 300 grams per hectare; protective spray; rated 7 days after inoculation
Pyricularia oryzae = settings: 300 grams/hectare; protective spray; scored after 6 days in greenhouse
[3] = system: southern armyworm Spodoptera eridamia; assay: Insecticidal leaf disk test, southern armyworm (AW); settings: 300 grams/hectare; sprayed leaf disk; visual inspection 24-48 hours after spraying

Row | Compound | percent disease control, tomato late blight (Phytophthora infestans) | percent disease control, cucumber anthracnose [1] | percent disease control, cucumber powdery mildew (Sphaerotheca fulginea) | percent disease control, septoria nodorum (wheat leaf blotch) (Septoria nodorum) | percent disease control, botrytis (Botrytis cinerea) | percent disease control, wheat powdery mildew [2] | percent disease control, rice blast (Pyricularia oryzae) | percent control, southern army worm [3]
1 | COC=C(C(=O)OC)c1ccccc1COc1cccc(C2CC2C(C)=NOC)c1 (single isomer, unassigned) [Compound 1.18B] | ≥ 95% | – | – | – | – | – | – | –
2 | COC=C(C(=O)OC)c1ccccc1COc1cccc(C2CC2C(=NOC)c2ccc(Cl)cc2)c1 (stereo not drawn) [Compound 1.04] | – | ≥ 95% | ≥ 90% | – | – | – | – | –
3 | CCC(C)C(NNc1ccccc1)=C1CC1c1cccc(OCc2ccccc2/C(=C\OC)C(=O)OC)c1 (stereo not drawn) [Compound 4.17, Methyl (E)-3-methoxy-2-trans-[2-(3-(2-(2-ethyl-1-(2-phenylhydrazino)propylidene)cyclopropyl)phenoxymethyl)phenyl]-2-propenoate] | – | ≥ 95% | ≥ 90% | ≥ 90% | – | – | – | –
4 | COC=C(C(=O)OC)c1ccccc1COc1cccc(C2CC2C(=NOC)c2ccc3ccccc3c2)c1 (stereo not drawn) [Compound 1.47] | ≥ 95% | – | – | – | ≥ 75% | – | – | –
5 | CCCCCCC(=NOC)C1CC1c1cccc(OCc2ccccc2/C(=C\OC)C(=O)OC)c1 (stereo not drawn) [Compound 1.23, Methyl (E)-3-methoxy-2-trans-[2-(3-(2-(methoximinohept-1-yl)cyclopropyl)-phenoxymethyl)phenyl]-2-propenoate] | – | – | ≥ 90% | ≥ 90% | – | ≥ 90% | – | –
6 | CO/C=C(/C(=O)OC)c1ccccc1COc1cccc(C2CC2C(=NOC)C2CC2)c1 (stereo not drawn) [Compound 1.34, Methyl (E)-3-methoxy-2-trans-[2-(3-(2-(methoximinocycloprop-1-yl)cyclopropyl)phenoxymethyl)phenyl]-2-propenoate] | ≥ 95% | ≥ 95% | ≥ 90% | – | – | – | ≥ 90% | –
7 | CCON=C(C1CC1)C1CC1c1cccc(OCc2ccccc2C(=COC)C(=O)OC)c1 (single isomer, unassigned) [Compound 1.108B] | – | – | – | ≥ 90% | ≥ 75% | – | – | –
8 | COC=C(C(=O)OC)c1ccccc1COc1cccc(C2CC2C(=NOC)C2CC=C(C)CC2)c1 (stereo not drawn) [Compound 1.33] | ≥ 95% | – | – | – | – | – | – | –
9 | CNC(=O)C(=NOC)c1ccccc1COc1cccc(C2CC2C(C)=NOC)c1 (single isomer, unassigned) [Compound 3.18A] | ≥ 95% | – | ≥ 90% | – | – | ≥ 90% | ≥ 90% | –
10 | CNC(=O)C(=NOC)c1ccccc1COc1cccc(C2CC2C(=NOC)C2CC2)c1 (stereo not drawn) [Compound 3.34] | ≥ 95% | ≥ 95% | ≥ 90% | ≥ 90% | – | – | – | –
11 | COC=C(C(=O)OC)c1ccccc1COc1cccc(C2CC2C(=NOC(C)(C)C)C2CC2)c1 (stereo not drawn) [Compound 1.110] | – | ≥ 95% | ≥ 90% | – | – | – | – | ≥ 90%
12 | COC=C(C(=O)OC)c1ccccc1COc1cccc(C2CC2C(=NOCc2ccccc2)C2CC2)c1 (stereo not drawn) [Compound 1.115] | ≥ 95% | ≥ 95% | ≥ 90% | – | ≥ 75% | – | – | –
13 | CCON=C(C1CC1)C1CC1c1cccc(OCc2ccccc2C(=COC)C(=O)OC)c1 (single isomer, unassigned) [Compound 1.108A] | – | ≥ 95% | ≥ 90% | – | – | – | ≥ 90% | –
14 | COC=C(C(=O)OC)c1ccccc1COc1cccc(C2CC2C(C)=NOC)c1 (single isomer, unassigned) [Compound 1.18A] | – | ≥ 95% | ≥ 90% | ≥ 90% | – | ≥ 90% | ≥ 90% | ≥ 90%
15 | CON=C(C(=O)OC)c1ccccc1COc1cccc(C2CC2C(=NOC)C2CC2)c1 (stereo not drawn) [Compound 2.34] | ≥ 95% | ≥ 95% | ≥ 90% | – | – | – | – | –
16 | COC=C(C(=O)OC)c1ccccc1COc1cccc(C2CC2C(CC(C)C)=NOC)c1 (stereo not drawn) [Compound 1.24] | – | – | ≥ 90% | – | – | – | ≥ 90% | ≥ 90%
17 | CNC(=O)C(=NOC)c1ccccc1COc1cccc(C2CC2C(C)=NOC)c1 (single isomer, unassigned) [Compound 3.18B] | – | ≥ 95% | – | – | – | – | – | –
18 | COC=C(C(=O)OC)c1ccccc1COc1cccc(C2CC2C(=NNC(=O)c2ccccc2)C2CC2)c1 (stereo not drawn) [Compound 4.98, Methyl (E)-3-methoxy-2-trans-[2-(3-(2-(1-(N-benzoylhydrazinomethylidine)cycloprop-1-yl)cyclopropyl)phenoxymethyl)phenyl]-2-propenoate] | ≥ 95% | ≥ 95% | ≥ 90% | ≥ 90% | – | – | – | ≥ 90%
